Peptide text beside a SMILES is read from it.
Assay: Relative helicity of the peptide core
Type: physicochemical
Design: key: 1=unordered; 2=one turn; 3=loosened alpha or 310 helix; 4=stabilized α helix in water; 5=a full helix
Conditions: scale of 1 to 5, least helical to most helical

Which Helicity does the source give for `CC[C@H](C)[C@H](NC(=O)[C@H](CCC(N)=O)NC(=O)[C@H](CO)NC(=O)[C@@H](NC(=O)[C@H](CC(N)=O)NC(=O)[C@H](CO)NC(=O)[C@H](CCC(N)=O)NC(=O)[C@H](CC(C)C)NC(=O)[C@H](CC(C(=O)O)C(=O)O)NC(=O)[C@H](CC(C(=O)O)C(=O)O)NC(=O)[C@H](CCC(=O)O)NC(=O)CN)C(C)C)C(=O)N[C@@H](CCCNC(=N)N)C(=O)N[C@@H](C)C(=O)N[C@@H](CCCCN)C(=O)N[C@@H](CO)C(=O)N[C@@H](CC(N)=O)C(N)=O` [310 helix ConG] (HELM PEPTIDE1{G.E.[O=C(O)C(C[C@H](N[*:1])C(=O)[*:2])C(=O)O].[O=C(O)C(C[C@H](N[*:1])C(=O)[*:2])C(=O)O].L.Q.S.N.V.S.Q.I.R.A.K.S.N.[am]}$$$$V2.0) here?
Its Helicity is 3.

With `CC[C@H](C)[C@H](NC(=O)[C@H](CC(C)C)NC(=O)[C@H](C)NC(=O)[C@H](CC(C)C)NC(=O)[C@H](C)NC(=O)[C@H](C)NC(=O)[C@H](CCC(N)=O)NC(=O)[C@H](CC(C)C)NC(=O)[C@H](CC(C(=O)O)C(=O)O)NC(=O)[C@H](CC(C(=O)O)C(=O)O)NC(=O)[C@H](CCC(=O)O)NC(=O)CN)C(=O)N[C@@H](CCCNC(=N)N)C(=O)N[C@@H](C)C(=O)N[C@@H](CCCCN)C(=O)N[C@@H](CO)C(=O)N[C@@H](CC(N)=O)C(N)=O` [alpha helix ConG, GEggLQAALALJRAKSN] (HELM PEPTIDE1{G.E.[O=C(O)C(C[C@H](N[*:1])C(=O)[*:2])C(=O)O].[O=C(O)C(C[C@H](N[*:1])C(=O)[*:2])C(=O)O].L.Q.A.A.L.A.L.I.R.A.K.S.N.[am]}$$$$V2.0) as the compound, how does the Helicity read?
Its Helicity is 5.

Source: patent US6511963B1 (priority 1992, dated 2003)
